# Data source: PubChem BioAssay AID743121 (NCATS, 2013)
# Screen: 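Knock-downs that sensitise breast cancer cells to camptothecin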 (primary screen)
# Cells: MDA-MB-231 cells, a human breast cancer line
# Reagents: single siRNA against human genes, 20 nM siRNA (0.8 pmol per well)
# Timing: 120 h (drug added 48 h after transfection, read 72 h later)
# Treatment: camptothecin 20 nM (about EC30) for 72 h; vehicle 0.1% DMSO in parallel plates
# Detection: 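CellTiter-Glo ATP signal, scaled to control siRNA as percent viability; sensitisation given as log2 of untreated divided by camptothecin-treated viability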
# Reading the numbers: log2 vehicle/camptothecin viability: higher = stronger sensitisation to camptothecin; viability with camptothecin and viability without drug: higher = more viable cells
# Active means: 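Each gene scored by redundant siRNA activity (RSA) over its individual siRNA ratios; a gene is called active at p < 0.001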
# In all, the deposit lists about 26,000 reagents; shown is a part drawn at random. In the full data, 167 (0.63%) are marked active. 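Calls are per gene from RSA p-values that are not deposited; an individual active-marked siRNA can sensitise only weakly.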 Unmarked entries are inactive. The numbers tell different reagents against one gene apart.
gene,reagent,log2 vehicle/camptothecin viability,viability with camptothecin (% of control),viability without drug (% of control)
CAMK2B (calcium/calmodulin dependent protein kinase II beta),1,-0.434,73.1,54.2
CAMK2B (calcium/calmodulin dependent protein kinase II beta),2,-0.8,57.9,33.3
CAMK2B (calcium/calmodulin dependent protein kinase II beta),3,-0.146,15.7,14.2
CAMK2B (calcium/calmodulin dependent protein kinase II beta),4,-0.201,97.8,85.1
TAF15 (TATA-box binding protein associated factor 15),1,-0.106,99.1,92.1
TAF15 (TATA-box binding protein associated factor 15),2,-0.174,93.3,82.8
TAF15 (TATA-box binding protein associated factor 15),3,-0.119,71.8,66.1
GDF7 (growth differentiation factor 7),1,-0.205,73.8,64
GDF7 (growth differentiation factor 7),2,-0.119,112,103
GDF7 (growth differentiation factor 7),3,0.838,23.7,42.4
GDF7 (growth differentiation factor 7),4,-0.0103,38.2,37.9
GNAI2 (G protein subunit alpha i2),1,-0.697,78.2,48.2
GNAI2 (G protein subunit alpha i2),2,-0.36,55.3,43.1
GNAI2 (G protein subunit alpha i2),3,-0.104,96.3,89.6
GNAI2 (G protein subunit alpha i2),4,-0.311,80.4,64.8
CLTCL1 (clathrin heavy chain like 1),1,-0.0847,91.9,86.7
CLTCL1 (clathrin heavy chain like 1),2,0.174,54.5,61.5
CLTCL1 (clathrin heavy chain like 1),3,-0.129,104,95.5
CLTCL1 (clathrin heavy chain like 1),4,-0.0216,74.7,73.6
"RARS2 (arginyl-tRNA synthetase 2, mitochondrial)",1,0.5,57.6,81.4
"RARS2 (arginyl-tRNA synthetase 2, mitochondrial)",2,-0.342,93.3,73.6
"RARS2 (arginyl-tRNA synthetase 2, mitochondrial)",3,-0.247,107,90.1
"RARS2 (arginyl-tRNA synthetase 2, mitochondrial)",4,-0.233,105,89.6
AKR7A2 (aldo-keto reductase family 7 member A2),1,-0.198,90.8,79.1
AKR7A2 (aldo-keto reductase family 7 member A2),2,-0.559,71.8,48.7
AKR7A2 (aldo-keto reductase family 7 member A2),3,0.311,80.7,100
AKR7A2 (aldo-keto reductase family 7 member A2),4,-0.247,61.7,52
SETD5 (SET domain containing 5),1,-0.228,116,98.7
SETD5 (SET domain containing 5),2,-0.429,75.5,56.1
SETD5 (SET domain containing 5),3,-0.195,44.2,38.6
SETD5 (SET domain containing 5),4,-0.238,107,90.7
SETD5 (SET domain containing 5),5,0.0259,91.5,93.1
SETD5 (SET domain containing 5),6,-0.297,54.2,44.1
SETD5 (SET domain containing 5),7,0.253,52.5,62.6
SETD5 (SET domain containing 5),8,0.222,67.9,79.1
SETD5 (SET domain containing 5),9,-0.132,71,64.8
SETD5 (SET domain containing 5),10,-0.191,110,96.7
SETD5 (SET domain containing 5),11,-0.0533,72.1,69.5
SETD5 (SET domain containing 5),12,-0.0903,46.6,43.7
GSK3A (glycogen synthase kinase 3 alpha),1,-0.265,115,95.3
GSK3A (glycogen synthase kinase 3 alpha),2,-0.167,79,70.4
GSK3A (glycogen synthase kinase 3 alpha),3,-0.24,62.1,52.5
GSK3A (glycogen synthase kinase 3 alpha),4,-0.251,113,94.8

The list goes on, starting with the last 7 of the part before.
gene,reagent,log2 vehicle/camptothecin viability,viability with camptothecin (% of control),viability without drug (% of control)
SETD5 (SET domain containing 5),10,-0.191,110,96.7
SETD5 (SET domain containing 5),11,-0.0533,72.1,69.5
SETD5 (SET domain containing 5),12,-0.0903,46.6,43.7
GSK3A (glycogen synthase kinase 3 alpha),1,-0.265,115,95.3
GSK3A (glycogen synthase kinase 3 alpha),2,-0.167,79,70.4
GSK3A (glycogen synthase kinase 3 alpha),3,-0.24,62.1,52.5
GSK3A (glycogen synthase kinase 3 alpha),4,-0.251,113,94.8
ABCD3 (ATP binding cassette subfamily D member 3),1,-0.107,85.5,79.4
ABCD3 (ATP binding cassette subfamily D member 3),2,-0.154,64.7,58.2
ABCD3 (ATP binding cassette subfamily D member 3),3,-0.0441,32.9,31.9
ABCD3 (ATP binding cassette subfamily D member 3),4,0.0928,56.7,60.4
STARD9 (StAR related lipid transfer domain containing 9),1,0.0878,54.4,57.8
STARD9 (StAR related lipid transfer domain containing 9),2,0.251,23.1,27.4
STARD9 (StAR related lipid transfer domain containing 9),3,-0.0366,47,45.8
STARD9 (StAR related lipid transfer domain containing 9),4,-0.0518,85.2,82.2
CYP4F12 (cytochrome P450 family 4 subfamily F member 12),1,-0.0189,95.1,93.8
CYP4F12 (cytochrome P450 family 4 subfamily F member 12),2,-0.469,72.7,52.5
CYP4F12 (cytochrome P450 family 4 subfamily F member 12),3,-0.191,91.9,80.5
CYP4F12 (cytochrome P450 family 4 subfamily F member 12),4,-0.267,97.3,80.9
FRS2 (fibroblast growth factor receptor substrate 2),1,0.147,100,111
FRS2 (fibroblast growth factor receptor substrate 2),2,-0.109,92.1,85.4
FRS2 (fibroblast growth factor receptor substrate 2),3,-0.119,103,94.9
FRS2 (fibroblast growth factor receptor substrate 2),4,1.12,23.4,51
DRD1 (dopamine receptor D1),1,-0.423,89.9,67.1
DRD1 (dopamine receptor D1),2,-0.394,39.7,30.2
DRD1 (dopamine receptor D1),3,0.185,61.6,70.1
DRD1 (dopamine receptor D1),4,0.0483,96.3,99.5
PTPN18 (protein tyrosine phosphatase non-receptor type 18),1,-0.654,79.3,50.4
PTPN18 (protein tyrosine phosphatase non-receptor type 18),2,-0.109,81.7,75.7
PTPN18 (protein tyrosine phosphatase non-receptor type 18),3,-0.148,54.4,49.1
PTPN18 (protein tyrosine phosphatase non-receptor type 18),4,0.0431,95.5,98.4
"RBBP7 (RB binding protein 7, chromatin remodeling factor)",1,-0.344,80.1,63.1
"RBBP7 (RB binding protein 7, chromatin remodeling factor)",2,0.0483,103,106
"RBBP7 (RB binding protein 7, chromatin remodeling factor)",3,-0.288,94.6,77.5
